Experimental data published in PubChem BioAssay AID1768 (National Center for Advancing Translational Sciences (NCATS), 2009).
The whole screen tested about 270,000 compounds, of which about 620 (0.23%) were called active. Only results without a clear call are listed here; the source files them as inconclusive. Calls follow the shape of the dose curve; as a rule, active = well fitted inhibition curve with a large enough effect in the polarisation, with a control signal flat (not every such curve was filed as active); inconclusive = small, poorly fitted or top-dose-only effect, or effect the other way, or a change in a side signal; inactive = no such curve, though single readings can be large or run the other way; the % refers to the polarisation. Some of these compounds have results that are not shown, active ones among them.
Potency is read from the fitted curve at half-maximal effect.

The chains behind the UniProt entries cited, without tags or fusion partners.
UniProt O00255, whole entry: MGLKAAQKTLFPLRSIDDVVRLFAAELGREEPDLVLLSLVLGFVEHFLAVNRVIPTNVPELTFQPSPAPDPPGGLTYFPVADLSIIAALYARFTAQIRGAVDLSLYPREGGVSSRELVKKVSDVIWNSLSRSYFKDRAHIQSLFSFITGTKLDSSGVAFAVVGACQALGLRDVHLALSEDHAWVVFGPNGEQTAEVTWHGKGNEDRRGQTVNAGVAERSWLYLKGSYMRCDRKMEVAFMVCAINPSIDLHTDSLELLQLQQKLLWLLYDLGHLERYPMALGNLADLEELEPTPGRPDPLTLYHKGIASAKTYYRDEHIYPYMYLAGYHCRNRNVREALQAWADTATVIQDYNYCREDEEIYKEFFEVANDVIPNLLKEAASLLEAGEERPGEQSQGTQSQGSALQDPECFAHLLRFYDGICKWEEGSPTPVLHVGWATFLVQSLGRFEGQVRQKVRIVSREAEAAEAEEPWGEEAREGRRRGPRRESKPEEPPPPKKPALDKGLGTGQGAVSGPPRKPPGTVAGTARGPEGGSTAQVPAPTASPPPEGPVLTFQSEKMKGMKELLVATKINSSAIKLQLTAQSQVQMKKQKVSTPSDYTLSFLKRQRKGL
UniProt Q03164, whole entry partner: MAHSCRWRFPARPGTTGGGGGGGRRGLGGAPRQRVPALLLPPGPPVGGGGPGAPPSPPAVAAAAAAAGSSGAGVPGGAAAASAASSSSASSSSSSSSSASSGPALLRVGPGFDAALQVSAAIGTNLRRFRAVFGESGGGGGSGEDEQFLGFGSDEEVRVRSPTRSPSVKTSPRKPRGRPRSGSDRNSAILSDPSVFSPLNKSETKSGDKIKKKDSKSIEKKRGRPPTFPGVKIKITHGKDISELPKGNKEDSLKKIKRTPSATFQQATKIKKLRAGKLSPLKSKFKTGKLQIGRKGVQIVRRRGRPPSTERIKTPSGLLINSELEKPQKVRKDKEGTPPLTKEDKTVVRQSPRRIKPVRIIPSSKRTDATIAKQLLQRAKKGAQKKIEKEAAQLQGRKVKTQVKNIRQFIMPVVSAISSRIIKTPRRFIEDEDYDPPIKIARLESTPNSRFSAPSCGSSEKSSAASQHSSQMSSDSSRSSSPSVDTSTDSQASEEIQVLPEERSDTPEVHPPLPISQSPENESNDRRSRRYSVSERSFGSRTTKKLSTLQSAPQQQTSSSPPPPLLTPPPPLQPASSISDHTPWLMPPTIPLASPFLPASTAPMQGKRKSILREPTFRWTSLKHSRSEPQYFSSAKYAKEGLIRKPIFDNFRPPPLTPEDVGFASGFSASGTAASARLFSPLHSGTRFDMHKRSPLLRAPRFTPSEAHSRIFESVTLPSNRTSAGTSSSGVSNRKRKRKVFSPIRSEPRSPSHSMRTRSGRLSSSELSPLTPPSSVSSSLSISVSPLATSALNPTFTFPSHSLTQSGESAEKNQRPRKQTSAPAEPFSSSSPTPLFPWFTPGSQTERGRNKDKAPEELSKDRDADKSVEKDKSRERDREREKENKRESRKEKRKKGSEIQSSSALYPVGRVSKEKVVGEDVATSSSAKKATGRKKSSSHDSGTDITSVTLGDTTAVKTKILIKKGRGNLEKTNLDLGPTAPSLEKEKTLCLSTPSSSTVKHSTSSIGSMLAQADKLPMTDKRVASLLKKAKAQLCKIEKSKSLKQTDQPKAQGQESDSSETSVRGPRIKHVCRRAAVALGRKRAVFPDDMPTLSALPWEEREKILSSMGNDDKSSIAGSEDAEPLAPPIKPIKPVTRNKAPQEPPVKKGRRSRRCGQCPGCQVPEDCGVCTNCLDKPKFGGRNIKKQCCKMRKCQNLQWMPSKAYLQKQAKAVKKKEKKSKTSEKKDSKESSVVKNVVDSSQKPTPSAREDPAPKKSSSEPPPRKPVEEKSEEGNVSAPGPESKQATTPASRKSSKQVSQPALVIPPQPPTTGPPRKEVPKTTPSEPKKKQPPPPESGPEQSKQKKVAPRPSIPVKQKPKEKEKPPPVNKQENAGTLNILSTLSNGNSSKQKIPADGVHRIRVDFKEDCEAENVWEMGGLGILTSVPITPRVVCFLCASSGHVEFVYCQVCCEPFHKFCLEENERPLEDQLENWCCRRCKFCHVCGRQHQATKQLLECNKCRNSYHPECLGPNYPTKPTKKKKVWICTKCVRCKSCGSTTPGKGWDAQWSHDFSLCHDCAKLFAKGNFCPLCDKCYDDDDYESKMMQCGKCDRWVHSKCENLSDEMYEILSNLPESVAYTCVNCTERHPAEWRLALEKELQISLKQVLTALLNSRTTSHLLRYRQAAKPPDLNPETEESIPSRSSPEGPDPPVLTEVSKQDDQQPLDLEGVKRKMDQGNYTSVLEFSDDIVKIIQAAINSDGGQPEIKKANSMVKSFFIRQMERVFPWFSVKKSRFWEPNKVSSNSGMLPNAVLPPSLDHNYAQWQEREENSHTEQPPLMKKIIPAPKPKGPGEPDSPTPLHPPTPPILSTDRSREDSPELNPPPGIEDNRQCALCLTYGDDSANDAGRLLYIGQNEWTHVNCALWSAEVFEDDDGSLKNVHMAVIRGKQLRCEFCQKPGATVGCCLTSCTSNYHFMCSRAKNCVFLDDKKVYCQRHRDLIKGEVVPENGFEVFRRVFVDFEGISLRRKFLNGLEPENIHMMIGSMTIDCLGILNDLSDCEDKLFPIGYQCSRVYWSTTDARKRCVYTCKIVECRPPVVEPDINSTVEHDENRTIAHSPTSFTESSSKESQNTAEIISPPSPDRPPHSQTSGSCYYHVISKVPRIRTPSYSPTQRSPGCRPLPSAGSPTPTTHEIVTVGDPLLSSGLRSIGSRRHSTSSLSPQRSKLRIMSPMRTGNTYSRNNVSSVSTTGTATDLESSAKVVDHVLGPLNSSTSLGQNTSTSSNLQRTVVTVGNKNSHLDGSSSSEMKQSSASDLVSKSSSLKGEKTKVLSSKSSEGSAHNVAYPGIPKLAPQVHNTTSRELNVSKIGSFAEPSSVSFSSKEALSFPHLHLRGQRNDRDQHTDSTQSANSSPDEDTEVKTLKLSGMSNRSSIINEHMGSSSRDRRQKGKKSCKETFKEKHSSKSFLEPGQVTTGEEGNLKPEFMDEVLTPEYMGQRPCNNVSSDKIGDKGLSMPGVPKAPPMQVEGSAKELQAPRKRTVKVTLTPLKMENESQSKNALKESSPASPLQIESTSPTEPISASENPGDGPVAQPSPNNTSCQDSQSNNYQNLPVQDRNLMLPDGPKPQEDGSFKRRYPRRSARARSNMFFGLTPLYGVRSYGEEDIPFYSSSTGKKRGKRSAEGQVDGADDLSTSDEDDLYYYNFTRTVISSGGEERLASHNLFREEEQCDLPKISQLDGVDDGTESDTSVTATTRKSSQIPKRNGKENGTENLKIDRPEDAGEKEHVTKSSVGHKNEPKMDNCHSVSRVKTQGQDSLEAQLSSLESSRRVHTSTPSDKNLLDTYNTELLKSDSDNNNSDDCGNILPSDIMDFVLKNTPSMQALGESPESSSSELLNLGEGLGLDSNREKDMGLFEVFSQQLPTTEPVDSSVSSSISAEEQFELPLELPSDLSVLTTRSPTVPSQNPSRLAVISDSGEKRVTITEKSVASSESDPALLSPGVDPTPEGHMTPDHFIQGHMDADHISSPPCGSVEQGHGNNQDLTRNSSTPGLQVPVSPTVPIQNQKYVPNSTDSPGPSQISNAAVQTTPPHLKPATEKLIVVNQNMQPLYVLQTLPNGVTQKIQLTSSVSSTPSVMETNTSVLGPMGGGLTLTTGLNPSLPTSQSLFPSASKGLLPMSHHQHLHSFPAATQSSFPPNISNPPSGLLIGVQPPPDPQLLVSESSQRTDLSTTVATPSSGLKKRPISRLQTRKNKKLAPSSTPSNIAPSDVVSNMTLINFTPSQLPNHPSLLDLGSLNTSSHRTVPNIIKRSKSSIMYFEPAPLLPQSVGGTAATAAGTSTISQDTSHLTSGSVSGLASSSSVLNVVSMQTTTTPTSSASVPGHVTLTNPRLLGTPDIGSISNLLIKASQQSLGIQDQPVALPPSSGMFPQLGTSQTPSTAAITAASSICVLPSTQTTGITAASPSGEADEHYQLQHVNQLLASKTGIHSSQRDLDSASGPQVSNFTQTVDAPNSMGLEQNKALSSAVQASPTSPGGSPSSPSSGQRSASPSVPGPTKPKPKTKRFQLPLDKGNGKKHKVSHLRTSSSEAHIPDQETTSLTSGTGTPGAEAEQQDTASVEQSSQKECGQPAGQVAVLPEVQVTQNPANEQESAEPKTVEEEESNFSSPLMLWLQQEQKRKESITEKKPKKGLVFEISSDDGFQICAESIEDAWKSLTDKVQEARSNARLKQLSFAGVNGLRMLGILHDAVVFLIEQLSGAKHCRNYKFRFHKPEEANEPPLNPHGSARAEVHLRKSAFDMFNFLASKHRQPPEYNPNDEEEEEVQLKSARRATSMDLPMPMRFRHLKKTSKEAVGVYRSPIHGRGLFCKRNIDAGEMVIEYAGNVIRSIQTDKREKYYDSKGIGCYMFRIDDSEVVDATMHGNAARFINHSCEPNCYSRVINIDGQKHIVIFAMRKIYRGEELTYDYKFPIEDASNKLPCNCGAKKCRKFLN

These compounds were tested against Menin (Homo sapiens) (UniProt O00255) (assay: qHTS Assay for Inhibitors Targeting the Menin-MLL Interaction in MLL Related Leukemias: Competition With Texas Red Labeled MLL-derived Mutant Peptide). Conditions: fluorescence polarization.
CC(C)N1C(=O)CC2(CCN(CCOC(=O)C(O)(c3ccccc3)c3ccccc3)CC2)C1=O was tested, and the Potency was inconclusive: 3.16 µM. For Cc1ccc(C(=O)NCC2(N3CCCCC3)CCCCC2)cc1, the Potency was inconclusive: 7.08 µM.
